Structures can show the parent of a compound that is named as a salt. Some of the results follow. The calls rarely recur for the same compound in another form.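 Kinases, fused to nanoluciferase, were expressed in K562 cells; luminescence was measured every 4 h from 2 to 18 h as percent of control (DMSO = 100%, positive control = 0%). A time point is decreased if signal falls significantly (2 sigma). Hits were called by the authors by a rule that is not shown; the count of time points alone does not decide it.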
What was measured:
Assay in all cases: kinase-Nluc reporter destabilization hit call (1 = scored as downregulated) (binary); higher = compound decreases kinase abundance
Details in all cases: K562; 2-18 h
EGFR = EGFR (UniProt P00533)
EGFR_G719S = EGFR_G719S (UniProt P00533)
EGFR_G719S_T790M = EGFR_G719S_T790M (UniProt P00533)
EGFR_L718V = EGFR_L718V (UniProt P00533)
EGFR_L858R = EGFR_L858R (UniProt P00533)
EGFR_L861Q = EGFR_L861Q (UniProt P00533)
EGFR_T790M = EGFR_T790M (UniProt P00533)
EPHA2 = EPHA2 (UniProt P29317)
ERBB3 = ERBB3 (UniProt P21860)
[1] = target: ERBB4_R711C (clone: ERBB4_mut) (UniProt Q15303)
ERN1 = ERN1 (UniProt O75460)
FGFR1 = FGFR1 (UniProt P11362)
FGFR2 = FGFR2 (UniProt P21802)
FGFR3 = FGFR3 (UniProt P22607)
FGR = FGR (UniProt P09769)
FLT3 = FLT3 (UniProt P36888)
FYN = FYN (UniProt P06241)
GSK3A = GSK3A (UniProt P49840)
HER2 = HER2 (UniProt P04626)
INSRR = INSRR (UniProt P14616)

Amino acid sequences for entries named in this document (tags omitted). A change or cut given only in a name is not applied to a line headed by its entry.
UniProt P29317, whole entry: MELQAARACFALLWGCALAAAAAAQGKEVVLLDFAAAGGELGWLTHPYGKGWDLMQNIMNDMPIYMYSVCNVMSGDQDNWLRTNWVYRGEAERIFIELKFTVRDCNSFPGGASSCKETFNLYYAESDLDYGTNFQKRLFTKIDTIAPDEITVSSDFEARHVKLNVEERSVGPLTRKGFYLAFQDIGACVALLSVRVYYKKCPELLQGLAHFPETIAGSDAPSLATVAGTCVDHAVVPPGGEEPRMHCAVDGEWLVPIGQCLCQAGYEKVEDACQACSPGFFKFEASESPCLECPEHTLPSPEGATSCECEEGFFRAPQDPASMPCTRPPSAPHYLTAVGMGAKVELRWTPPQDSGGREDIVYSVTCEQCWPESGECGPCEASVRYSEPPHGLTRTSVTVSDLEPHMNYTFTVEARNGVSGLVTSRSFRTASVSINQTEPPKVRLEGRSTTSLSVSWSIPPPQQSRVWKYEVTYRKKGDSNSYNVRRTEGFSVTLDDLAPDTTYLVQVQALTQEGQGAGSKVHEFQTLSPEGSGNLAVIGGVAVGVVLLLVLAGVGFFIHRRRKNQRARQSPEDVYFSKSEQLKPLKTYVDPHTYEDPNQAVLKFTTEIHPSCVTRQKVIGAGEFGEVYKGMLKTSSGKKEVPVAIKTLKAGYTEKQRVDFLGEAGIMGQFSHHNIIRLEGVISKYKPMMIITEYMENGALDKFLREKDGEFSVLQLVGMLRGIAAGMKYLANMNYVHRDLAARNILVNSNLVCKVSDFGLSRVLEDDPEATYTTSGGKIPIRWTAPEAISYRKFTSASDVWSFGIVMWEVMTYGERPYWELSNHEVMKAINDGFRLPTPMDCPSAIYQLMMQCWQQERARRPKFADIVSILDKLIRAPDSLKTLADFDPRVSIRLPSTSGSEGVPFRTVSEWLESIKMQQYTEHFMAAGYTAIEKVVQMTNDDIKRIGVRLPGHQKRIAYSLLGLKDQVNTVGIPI
UniProt P21860, whole entry: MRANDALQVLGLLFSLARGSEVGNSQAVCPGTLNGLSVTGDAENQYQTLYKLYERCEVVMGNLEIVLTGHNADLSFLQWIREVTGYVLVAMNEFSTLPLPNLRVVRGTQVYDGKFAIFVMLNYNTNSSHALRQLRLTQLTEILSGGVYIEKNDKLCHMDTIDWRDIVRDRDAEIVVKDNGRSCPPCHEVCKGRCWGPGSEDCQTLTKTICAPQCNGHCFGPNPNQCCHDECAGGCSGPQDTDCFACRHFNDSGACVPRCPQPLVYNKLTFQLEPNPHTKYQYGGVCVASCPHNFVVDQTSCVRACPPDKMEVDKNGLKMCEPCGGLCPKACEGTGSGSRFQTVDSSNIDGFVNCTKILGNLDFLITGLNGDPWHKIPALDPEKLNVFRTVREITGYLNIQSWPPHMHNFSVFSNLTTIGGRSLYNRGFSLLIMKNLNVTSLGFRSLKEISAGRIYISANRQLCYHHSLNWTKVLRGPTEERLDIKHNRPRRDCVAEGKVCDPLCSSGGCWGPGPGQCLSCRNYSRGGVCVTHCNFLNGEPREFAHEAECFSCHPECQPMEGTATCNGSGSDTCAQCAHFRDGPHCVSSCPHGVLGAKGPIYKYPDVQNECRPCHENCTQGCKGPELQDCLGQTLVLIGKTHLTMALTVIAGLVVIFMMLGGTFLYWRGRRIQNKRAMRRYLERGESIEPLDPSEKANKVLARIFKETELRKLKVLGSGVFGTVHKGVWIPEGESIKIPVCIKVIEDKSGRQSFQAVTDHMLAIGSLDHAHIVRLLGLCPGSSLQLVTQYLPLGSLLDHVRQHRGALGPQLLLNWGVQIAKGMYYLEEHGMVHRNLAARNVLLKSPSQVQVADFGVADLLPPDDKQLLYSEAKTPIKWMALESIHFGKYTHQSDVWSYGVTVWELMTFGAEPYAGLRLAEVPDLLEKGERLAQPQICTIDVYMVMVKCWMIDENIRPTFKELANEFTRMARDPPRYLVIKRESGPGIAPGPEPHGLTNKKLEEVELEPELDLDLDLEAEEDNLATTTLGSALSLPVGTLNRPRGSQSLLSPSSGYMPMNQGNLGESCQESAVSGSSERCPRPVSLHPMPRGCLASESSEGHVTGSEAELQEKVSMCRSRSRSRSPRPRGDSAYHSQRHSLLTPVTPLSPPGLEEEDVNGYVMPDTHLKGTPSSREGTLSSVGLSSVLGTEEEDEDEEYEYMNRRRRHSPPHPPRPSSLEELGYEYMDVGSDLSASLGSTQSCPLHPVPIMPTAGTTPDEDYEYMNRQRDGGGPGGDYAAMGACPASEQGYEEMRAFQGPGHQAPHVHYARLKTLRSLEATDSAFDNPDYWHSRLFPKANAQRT
UniProt Q15303, whole entry R711C: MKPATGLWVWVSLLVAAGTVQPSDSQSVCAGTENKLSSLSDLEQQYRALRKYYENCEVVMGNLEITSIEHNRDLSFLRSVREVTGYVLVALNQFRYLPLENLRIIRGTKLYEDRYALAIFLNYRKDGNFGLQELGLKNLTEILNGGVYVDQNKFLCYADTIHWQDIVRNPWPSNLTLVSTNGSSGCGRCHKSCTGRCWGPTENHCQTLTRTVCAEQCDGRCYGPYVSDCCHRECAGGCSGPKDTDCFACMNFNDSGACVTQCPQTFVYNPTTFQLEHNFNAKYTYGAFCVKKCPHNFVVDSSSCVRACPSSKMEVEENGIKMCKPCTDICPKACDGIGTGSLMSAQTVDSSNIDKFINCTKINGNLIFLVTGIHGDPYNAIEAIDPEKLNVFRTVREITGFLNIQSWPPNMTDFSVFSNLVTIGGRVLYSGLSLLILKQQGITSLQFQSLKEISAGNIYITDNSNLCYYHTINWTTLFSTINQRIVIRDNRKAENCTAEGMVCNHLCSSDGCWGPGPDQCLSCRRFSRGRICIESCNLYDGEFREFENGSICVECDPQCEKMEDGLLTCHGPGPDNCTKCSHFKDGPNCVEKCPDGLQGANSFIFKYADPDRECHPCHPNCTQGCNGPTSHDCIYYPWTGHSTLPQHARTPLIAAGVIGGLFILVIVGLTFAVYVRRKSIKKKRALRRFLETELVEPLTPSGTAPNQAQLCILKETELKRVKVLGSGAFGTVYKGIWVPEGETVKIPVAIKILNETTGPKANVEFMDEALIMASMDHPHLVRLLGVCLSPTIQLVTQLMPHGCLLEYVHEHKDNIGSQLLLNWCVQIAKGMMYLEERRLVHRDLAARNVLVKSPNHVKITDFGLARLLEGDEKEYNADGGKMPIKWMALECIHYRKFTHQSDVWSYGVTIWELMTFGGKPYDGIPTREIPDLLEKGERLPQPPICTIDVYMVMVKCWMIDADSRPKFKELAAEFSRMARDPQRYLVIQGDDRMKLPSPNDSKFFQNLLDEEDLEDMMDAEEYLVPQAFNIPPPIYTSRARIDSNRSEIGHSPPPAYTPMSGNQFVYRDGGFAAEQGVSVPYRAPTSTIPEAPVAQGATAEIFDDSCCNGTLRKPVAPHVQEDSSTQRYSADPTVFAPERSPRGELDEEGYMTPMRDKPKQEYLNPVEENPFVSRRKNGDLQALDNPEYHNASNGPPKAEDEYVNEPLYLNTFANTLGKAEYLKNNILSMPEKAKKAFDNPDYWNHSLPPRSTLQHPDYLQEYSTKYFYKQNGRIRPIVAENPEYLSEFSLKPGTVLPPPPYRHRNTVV
UniProt P11362, whole entry, looked up: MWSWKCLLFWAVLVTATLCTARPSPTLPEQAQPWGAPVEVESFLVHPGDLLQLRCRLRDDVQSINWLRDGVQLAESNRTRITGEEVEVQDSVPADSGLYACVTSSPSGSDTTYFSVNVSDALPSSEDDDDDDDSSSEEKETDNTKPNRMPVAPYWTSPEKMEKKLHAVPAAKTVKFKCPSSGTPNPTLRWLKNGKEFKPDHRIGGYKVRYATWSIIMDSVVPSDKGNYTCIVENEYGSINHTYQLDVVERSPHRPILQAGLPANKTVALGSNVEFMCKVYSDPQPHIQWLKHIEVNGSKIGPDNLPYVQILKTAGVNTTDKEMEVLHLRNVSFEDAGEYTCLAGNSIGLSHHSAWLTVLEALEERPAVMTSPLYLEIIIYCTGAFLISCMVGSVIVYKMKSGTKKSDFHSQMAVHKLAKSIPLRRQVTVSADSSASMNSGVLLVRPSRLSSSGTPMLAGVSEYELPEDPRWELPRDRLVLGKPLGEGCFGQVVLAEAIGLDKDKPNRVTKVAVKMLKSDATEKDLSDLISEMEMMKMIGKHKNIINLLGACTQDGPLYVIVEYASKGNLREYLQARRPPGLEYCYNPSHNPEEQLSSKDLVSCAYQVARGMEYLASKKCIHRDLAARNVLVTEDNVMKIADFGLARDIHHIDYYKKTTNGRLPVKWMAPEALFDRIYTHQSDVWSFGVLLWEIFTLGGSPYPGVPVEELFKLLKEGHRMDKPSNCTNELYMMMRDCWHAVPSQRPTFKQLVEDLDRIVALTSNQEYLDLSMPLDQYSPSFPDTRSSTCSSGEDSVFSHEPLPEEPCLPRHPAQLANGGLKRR
UniProt P49840: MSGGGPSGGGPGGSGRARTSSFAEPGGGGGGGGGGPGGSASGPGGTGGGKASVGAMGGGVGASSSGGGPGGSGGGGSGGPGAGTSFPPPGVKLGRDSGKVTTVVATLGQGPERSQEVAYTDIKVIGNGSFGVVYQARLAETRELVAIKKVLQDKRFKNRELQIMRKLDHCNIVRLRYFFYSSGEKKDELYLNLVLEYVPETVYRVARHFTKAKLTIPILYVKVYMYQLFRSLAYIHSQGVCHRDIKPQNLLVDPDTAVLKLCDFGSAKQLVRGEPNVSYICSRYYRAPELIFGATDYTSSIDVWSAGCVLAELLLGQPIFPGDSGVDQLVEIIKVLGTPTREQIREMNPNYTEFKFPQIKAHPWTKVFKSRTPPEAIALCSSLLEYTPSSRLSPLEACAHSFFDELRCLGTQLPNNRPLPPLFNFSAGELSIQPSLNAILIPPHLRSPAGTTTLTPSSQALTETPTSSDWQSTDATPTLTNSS
UniProt P14616: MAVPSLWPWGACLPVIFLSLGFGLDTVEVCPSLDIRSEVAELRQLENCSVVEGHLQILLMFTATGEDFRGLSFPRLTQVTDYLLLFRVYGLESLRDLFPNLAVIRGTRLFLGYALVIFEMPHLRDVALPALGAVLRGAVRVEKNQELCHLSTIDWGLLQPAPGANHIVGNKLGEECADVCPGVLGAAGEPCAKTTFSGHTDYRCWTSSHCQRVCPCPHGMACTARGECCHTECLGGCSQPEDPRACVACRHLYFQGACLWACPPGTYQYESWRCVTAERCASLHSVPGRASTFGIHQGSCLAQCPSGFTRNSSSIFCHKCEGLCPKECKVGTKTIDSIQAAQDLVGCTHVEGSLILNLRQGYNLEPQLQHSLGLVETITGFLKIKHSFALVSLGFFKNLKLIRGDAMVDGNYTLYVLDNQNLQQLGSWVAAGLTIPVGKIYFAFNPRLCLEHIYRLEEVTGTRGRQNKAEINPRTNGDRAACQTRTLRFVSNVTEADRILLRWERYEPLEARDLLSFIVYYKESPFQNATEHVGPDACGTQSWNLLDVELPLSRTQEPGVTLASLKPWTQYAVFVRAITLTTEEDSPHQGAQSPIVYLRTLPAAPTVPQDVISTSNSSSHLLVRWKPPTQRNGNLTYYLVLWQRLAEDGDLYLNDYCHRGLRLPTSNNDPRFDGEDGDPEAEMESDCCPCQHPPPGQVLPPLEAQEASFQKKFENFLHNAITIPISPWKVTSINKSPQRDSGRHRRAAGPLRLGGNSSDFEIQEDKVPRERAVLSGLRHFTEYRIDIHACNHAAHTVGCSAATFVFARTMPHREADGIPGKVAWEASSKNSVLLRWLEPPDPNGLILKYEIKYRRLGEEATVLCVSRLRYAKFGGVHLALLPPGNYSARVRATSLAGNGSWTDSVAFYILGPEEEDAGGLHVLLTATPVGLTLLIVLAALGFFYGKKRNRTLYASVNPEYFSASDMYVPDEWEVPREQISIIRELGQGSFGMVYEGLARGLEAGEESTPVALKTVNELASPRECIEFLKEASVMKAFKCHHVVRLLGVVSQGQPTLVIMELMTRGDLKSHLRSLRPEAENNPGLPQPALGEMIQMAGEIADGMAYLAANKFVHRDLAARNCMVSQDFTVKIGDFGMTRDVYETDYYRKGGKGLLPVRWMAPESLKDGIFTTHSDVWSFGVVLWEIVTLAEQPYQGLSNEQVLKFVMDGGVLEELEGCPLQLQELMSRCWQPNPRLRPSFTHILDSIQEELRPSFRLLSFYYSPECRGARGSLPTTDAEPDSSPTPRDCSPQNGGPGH

Measured: kinase-Nluc reporter destabilization hit call

CCOC(=O)N1C/C(=C/c2ccccc2F)C(=O)/C(=C\c2ccccc2F)C1 (2.5 µM)
inactive: EGFR 0 | EGFR_G719S 0 | EGFR_G719S_T790M 0 | EGFR_L718V 0 | EGFR_L858R 0 | EGFR_L861Q 0 | EGFR_T790M 0 | EPHA2 = 0 | ERBB3 = 0 | [1] 0 | ERN1 = 0 | FGFR1 = 0 | FGFR2 = 0 | FGFR3 = 0 | FGR 0 | FLT3 = 0 | FYN 0 | GSK3A 0 | HER2 = 0 | INSRR 0

C[C@H](Nc1ncnc2[nH]cnc12)c1cc2ccc(F)cc2nc1-c1ccccn1 (10 µM)
inactive: EGFR 0 | EGFR_G719S 0 | EGFR_G719S_T790M 0 | EGFR_L718V 0 | EGFR_L858R 0 | EGFR_L861Q 0 | EGFR_T790M 0 | EPHA2 = 0 | ERBB3 = 0 | [1] 0 | ERN1 = 0 | FGFR1 = 0 | FGFR2 = 0 | FGFR3 = 0 | FGR 0 | FLT3 = 0 | FYN 0 | GSK3A 0 | HER2 = 0 | INSRR 0

C[C@@H]1CN(c2cc(-c3n[nH]c4ccc(OC5(C)CC5)cc34)ncn2)C[C@H](C)O1 (10 µM)
inactive: EGFR 0 | EGFR_G719S 0 | EGFR_G719S_T790M 0 | EGFR_L718V 0 | EGFR_L858R 0 | EGFR_L861Q 0 | EGFR_T790M 0 | EPHA2 = 0 | ERBB3 = 0 | [1] 0 | ERN1 = 0 | FGFR1 = 0 | FGFR2 = 0 | FGFR3 = 0 | FGR 0 | FLT3 = 0 | FYN 0 | GSK3A 0 | HER2 = 0 | INSRR 0

CNC(=O)c1ccccc1Oc1nc(Nc2cc(OC)c(OC)c(OC)c2)ncc1Br (2.5 µM)
inactive: EGFR 0 | EGFR_G719S 0 | EGFR_G719S_T790M 0 | EGFR_L718V 0 | EGFR_L858R 0 | EGFR_L861Q 0 | EGFR_T790M 0 | EPHA2 = 0 | ERBB3 = 0 | [1] 0 | ERN1 = 0 | FGFR1 = 0 | FGFR2 = 0 | FGFR3 = 0 | FGR 0 | FLT3 = 0 | FYN 0 | GSK3A 0 | HER2 = 0 | INSRR 0

CNc1cc(Nc2cccn(-c3ccccn3)c2=O)nn2c(C(=O)N[C@@H]3C[C@@H]3F)cnc12 (2.5 µM)
inactive: EGFR 0 | EGFR_G719S 0 | EGFR_G719S_T790M 0 | EGFR_L718V 0 | EGFR_L858R 0 | EGFR_L861Q 0 | EGFR_T790M 0 | EPHA2 = 0 | ERBB3 = 0 | [1] 0 | ERN1 = 0 | FGFR1 = 0 | FGFR2 = 0 | FGFR3 = 0 | FGR 0 | FLT3 = 0 | FYN 0 | GSK3A 0 | HER2 = 0 | INSRR 0

C=CC(=O)Nc1cccc(-c2cccc3cnc(Nc4ccc(N5CCN(CCO)CC5)c(F)c4F)nc23)c1 [Olafertinib] (2.5 µM)
inactive: EGFR 0 | EGFR_G719S 0 | EGFR_G719S_T790M 0 | EGFR_L718V 0 | EGFR_L858R 0 | EGFR_L861Q 0 | EGFR_T790M 0 | EPHA2 = 0 | ERBB3 = 0 | [1] 0 | ERN1 = 0 | FGFR1 = 0 | FGFR2 = 0 | FGFR3 = 0 | FGR 0 | FLT3 = 0 | FYN 0 | GSK3A 0 | HER2 = 0 | INSRR 0

O=C(O)c1cccc(CN2C(=O)/C(=C(\c3ccccc3)c3ccc(Cl)cc3)c3ccccc32)c1 (2.5 µM)
inactive: EGFR 0 | EGFR_G719S 0 | EGFR_G719S_T790M 0 | EGFR_L718V 0 | EGFR_L858R 0 | EGFR_L861Q 0 | EGFR_T790M 0 | EPHA2 = 0 | ERBB3 = 0 | [1] 0 | ERN1 = 0 | FGFR1 = 0 | FGFR2 = 0 | FGFR3 = 0 | FGR 0 | FLT3 = 0 | FYN 0 | GSK3A 0 | HER2 = 0 | INSRR 0

O=C1/C(=C\c2ccc(Cl)cc2)C=C(c2ccccc2)N1c1ccc(O)cc1 (2.5 µM)
inactive: EGFR 0 | EGFR_G719S 0 | EGFR_G719S_T790M 0 | EGFR_L718V 0 | EGFR_L858R 0 | EGFR_L861Q 0 | EGFR_T790M 0 | EPHA2 = 0 | ERBB3 = 0 | [1] 0 | ERN1 = 0 | FGFR1 = 0 | FGFR2 = 0 | FGFR3 = 0 | FGR 0 | FLT3 = 0 | FYN 0 | GSK3A 0 | HER2 = 0 | INSRR 0

C[C@H](Nc1ncnc2nc[nH]c12)c1cc2cccc(Cl)c2c(=O)n1-c1ccccc1 [Duvelisib] (10 µM)
inactive: EGFR 0 | EGFR_G719S 0 | EGFR_G719S_T790M 0 | EGFR_L718V 0 | EGFR_L858R 0 | EGFR_L861Q 0 | EGFR_T790M 0 | EPHA2 = 0 | ERBB3 = 0 | [1] 0 | ERN1 = 0 | FGFR1 = 0 | FGFR2 = 0 | FGFR3 = 0 | FGR 0 | FLT3 = 0 | FYN 0 | GSK3A 0 | HER2 = 0 | INSRR 0

CC(C)S(=O)(=O)c1ccc2nccc(Nc3ccc4scnc4c3)c2c1 (10 µM)
inactive: EGFR 0 | EGFR_G719S 0 | EGFR_G719S_T790M 0 | EGFR_L718V 0 | EGFR_L858R 0 | EGFR_L861Q 0 | EGFR_T790M 0 | EPHA2 = 0 | ERBB3 = 0 | [1] 0 | ERN1 = 0 | FGFR1 = 0 | FGFR2 = 0 | FGFR3 = 0 | FGR 0 | FLT3 = 0 | FYN 0 | GSK3A 0 | HER2 = 0 | INSRR 0

Cc1nc(-c2cnn(C)c2)nc2c1[nH]c1ncc(-c3ccc(N4CCN(C)CC4)cc3)cc12 [GNE 220 (hydrochloride)] (10 µM)
inactive: EGFR 0 | EGFR_G719S 0 | EGFR_G719S_T790M 0 | EGFR_L718V 0 | EGFR_L858R 0 | EGFR_L861Q 0 | EGFR_T790M 0 | EPHA2 = 0 | ERBB3 = 0 | [1] 0 | ERN1 = 0 | FGFR1 = 0 | FGFR2 = 0 | FGFR3 = 0 | FGR 0 | FLT3 = 0 | FYN 0 | GSK3A 0 | HER2 = 0 | INSRR 0

O=C(Nc1cccc(C(F)(F)F)c1)c1cccc2cc(Oc3cc(CO)ncn3)ccc12 (10 µM)
inactive: EGFR 0 | EGFR_G719S 0 | EGFR_G719S_T790M 0 | EGFR_L718V 0 | EGFR_L858R 0 | EGFR_L861Q 0 | EGFR_T790M 0 | EPHA2 = 0 | ERBB3 = 0 | [1] 0 | ERN1 = 0 | FGFR1 = 0 | FGFR2 = 0 | FGFR3 = 0 | FGR 0 | FLT3 = 0 | FYN 0 | GSK3A 0 | HER2 = 0 | INSRR 0

CNC(=O)c1cc2c(Oc3ccc(NC(=S)NC(=O)Cc4ccccc4)cc3F)ccnc2cc1OC [TAS-115 mesylate] (10 µM)
inactive: EGFR 0 | EGFR_G719S 0 | EGFR_G719S_T790M 0 | EGFR_L718V 0 | EGFR_L858R 0 | EGFR_L861Q 0 | EGFR_T790M 0 | EPHA2 = 0 | ERBB3 = 0 | [1] 0 | ERN1 = 0 | FGFR1 = 0 | FGFR2 = 0 | FGFR3 = 0 | FGR 0 | FLT3 = 0 | FYN 0 | GSK3A 0 | HER2 = 0 | INSRR 0

COc1cc(N2CCOCC2)ccc1NC(=O)c1csc(-c2cccnc2)n1 [IRAK inhibitor 6] (10 µM)
inactive: EGFR 0 | EGFR_G719S 0 | EGFR_G719S_T790M 0 | EGFR_L718V 0 | EGFR_L858R 0 | EGFR_L861Q 0 | EGFR_T790M 0 | EPHA2 = 0 | ERBB3 = 0 | [1] 0 | ERN1 = 0 | FGFR1 = 0 | FGFR2 = 0 | FGFR3 = 0 | FGR 0 | FLT3 = 0 | FYN 0 | GSK3A 0 | HER2 = 0 | INSRR 0

3 structures already listed, sorted by number of heavy atoms, ascending.
CC(C)S(=O)(=O)c1ccc2nccc(Nc3ccc4scnc4c3)c2c1 (10 µM)
inactive: EGFR 0 | EGFR_G719S 0 | EGFR_G719S_T790M 0 | EGFR_L718V 0 | EGFR_L858R 0 | EGFR_L861Q 0 | EGFR_T790M 0 | EPHA2 = 0 | ERBB3 = 0 | [1] 0 | ERN1 = 0 | FGFR1 = 0 | FGFR2 = 0 | FGFR3 = 0 | FGR 0 | FLT3 = 0 | FYN 0 | GSK3A 0 | HER2 = 0 | INSRR 0

COc1cc(N2CCOCC2)ccc1NC(=O)c1csc(-c2cccnc2)n1 [IRAK inhibitor 6] (10 µM)
inactive: EGFR 0 | EGFR_G719S 0 | EGFR_G719S_T790M 0 | EGFR_L718V 0 | EGFR_L858R 0 | EGFR_L861Q 0 | EGFR_T790M 0 | EPHA2 = 0 | ERBB3 = 0 | [1] 0 | ERN1 = 0 | FGFR1 = 0 | FGFR2 = 0 | FGFR3 = 0 | FGR 0 | FLT3 = 0 | FYN 0 | GSK3A 0 | HER2 = 0 | INSRR 0

Cc1nc(-c2cnn(C)c2)nc2c1[nH]c1ncc(-c3ccc(N4CCN(C)CC4)cc3)cc12 [GNE 220 (hydrochloride)] (10 µM)
inactive: EGFR 0 | EGFR_G719S 0 | EGFR_G719S_T790M 0 | EGFR_L718V 0 | EGFR_L858R 0 | EGFR_L861Q 0 | EGFR_T790M 0 | EPHA2 = 0 | ERBB3 = 0 | [1] 0 | ERN1 = 0 | FGFR1 = 0 | FGFR2 = 0 | FGFR3 = 0 | FGR 0 | FLT3 = 0 | FYN 0 | GSK3A 0 | HER2 = 0 | INSRR 0

Further entries:

Nc1cccc(-c2cc3c(Oc4cccc(O)c4)ncnc3[nH]2)c1 (10 µM)
inactive: EGFR 0 | EGFR_G719S 0 | EGFR_G719S_T790M 0 | EGFR_L718V 0 | EGFR_L858R 0 | EGFR_L861Q 0 | EGFR_T790M 0 | EPHA2 = 0 | ERBB3 = 0 | [1] 0 | ERN1 = 0 | FGFR1 = 0 | FGFR3 = 0 | FGR 0 | FLT3 = 0 | FYN 0 | GSK3A 0 | HER2 = 0 | INSRR 0
active: FGFR2 = 1

Cn1cc2cc(C(F)(F)c3nnc4ccc(-c5cnn(C6CC6)c5)nn34)c(F)cc2n1 [Bozitinib] (10 µM)
inactive: EGFR 0 | EGFR_G719S 0 | EGFR_G719S_T790M 0 | EGFR_L718V 0 | EGFR_L858R 0 | EGFR_L861Q 0 | EGFR_T790M 0 | EPHA2 = 0 | ERBB3 = 0 | [1] 0 | ERN1 = 0 | FGFR1 = 0 | FGFR2 = 0 | FGFR3 = 0 | FGR 0 | FLT3 = 0 | FYN 0 | GSK3A 0 | HER2 = 0 | INSRR 0

C[C@H](NC(=O)[C@H]1NCC[C@@H]1O)c1ccc(-c2noc(CCC3CCCC3)n2)cc1 (10 µM)
inactive: EGFR 0 | EGFR_G719S 0 | EGFR_G719S_T790M 0 | EGFR_L718V 0 | EGFR_L858R 0 | EGFR_L861Q 0 | EGFR_T790M 0 | EPHA2 = 0 | ERBB3 = 0 | [1] 0 | ERN1 = 0 | FGFR1 = 0 | FGFR2 = 0 | FGFR3 = 0 | FGR 0 | FLT3 = 0 | FYN 0 | GSK3A 0 | HER2 = 0 | INSRR 0

Oc1ccc(/C=C/c2cc(O)cc(F)c2)cc1 [Resveratrol analog 1] (10 µM)
inactive: EGFR 0 | EGFR_G719S 0 | EGFR_G719S_T790M 0 | EGFR_L718V 0 | EGFR_L858R 0 | EGFR_L861Q 0 | EGFR_T790M 0 | EPHA2 = 0 | ERBB3 = 0 | [1] 0 | ERN1 = 0 | FGFR1 = 0 | FGFR2 = 0 | FGFR3 = 0 | FGR 0 | FLT3 = 0 | FYN 0 | GSK3A 0 | HER2 = 0 | INSRR 0

From the supplement of paper PMC12823440, “Inhibitors supercharge kinase turnover through native proteolytic circuits” (Nature, 2025)
